Measurements from article PMC4751549.
No constants are given. Whether binding was seen depends on the method and setting. Binding seen in cells or lysates may run through a third protein. Some results given as binding are weak or reduced against the parent protein; the word gives no strength. Sequences can lack the tags named with a protein.

By UniProt entry, the sequences of proteins in these tests, tags left out. Where a name states a change or a piece, a line headed by the entry shows the natural chain unless it says otherwise.
UniProt P36012: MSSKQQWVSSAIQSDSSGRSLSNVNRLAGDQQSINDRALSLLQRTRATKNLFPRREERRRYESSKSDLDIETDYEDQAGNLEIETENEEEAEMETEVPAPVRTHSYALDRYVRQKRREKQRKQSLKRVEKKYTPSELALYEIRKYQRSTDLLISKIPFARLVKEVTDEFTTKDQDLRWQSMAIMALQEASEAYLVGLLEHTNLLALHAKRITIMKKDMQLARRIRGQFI

Target: T1, Ubp8-9myc (ubiquitin-specific processing protease 8, SAGA DUB module subunit) (S. cerevisiae) (UniProt P50102)
T1 sequence: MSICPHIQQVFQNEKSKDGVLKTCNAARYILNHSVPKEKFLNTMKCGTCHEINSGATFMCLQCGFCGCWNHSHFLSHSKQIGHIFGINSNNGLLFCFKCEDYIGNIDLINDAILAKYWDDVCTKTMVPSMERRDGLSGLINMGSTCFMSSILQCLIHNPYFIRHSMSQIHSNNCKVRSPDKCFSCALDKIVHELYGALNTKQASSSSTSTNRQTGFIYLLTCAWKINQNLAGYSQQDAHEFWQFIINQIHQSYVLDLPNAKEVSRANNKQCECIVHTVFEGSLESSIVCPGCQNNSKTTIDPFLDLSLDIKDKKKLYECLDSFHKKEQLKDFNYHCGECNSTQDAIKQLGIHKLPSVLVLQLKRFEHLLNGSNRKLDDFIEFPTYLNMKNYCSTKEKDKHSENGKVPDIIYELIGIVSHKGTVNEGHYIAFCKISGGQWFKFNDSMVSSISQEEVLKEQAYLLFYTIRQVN
Test: co-IP; spheroplast lysates of the double-tagged yeast strain; Ubp8-9myc precipitated overnight at 4° with anti-myc antibody prebound to protein G Dynabeads; IP buffer 50 mM Tris pH 8, 1 mM EDTA, 50 mM NaCl, 1% NP-40; Cse4-6HA detected by anti-HA western blot

binding: binds
Substance: Cse4-6HA (centromeric histone variant Cse4, chromosome segregation protein 4) (from UniProt P36012 1-229)
